Results are given in words; binding and its absence hold for the method and conditions named. In cells and extracts the contact can be indirect. Some entries that bind do so weakly or less than the wild type. For some assays here: Where a sequence is shown, tags or fusion partners need not be part of it.
T1: Nanog (mouse) (UniProt Q80Z64)
T1 sequence: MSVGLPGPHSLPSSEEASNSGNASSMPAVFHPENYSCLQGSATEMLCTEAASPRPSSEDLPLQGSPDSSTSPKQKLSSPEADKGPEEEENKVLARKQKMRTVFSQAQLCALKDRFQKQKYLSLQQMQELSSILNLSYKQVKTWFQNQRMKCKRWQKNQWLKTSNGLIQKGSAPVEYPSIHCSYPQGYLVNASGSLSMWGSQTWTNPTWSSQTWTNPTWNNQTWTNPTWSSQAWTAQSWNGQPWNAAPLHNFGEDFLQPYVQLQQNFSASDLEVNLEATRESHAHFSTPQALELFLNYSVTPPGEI

Amino acid sequences for entries named in this document (tags omitted).
UniProt P61202: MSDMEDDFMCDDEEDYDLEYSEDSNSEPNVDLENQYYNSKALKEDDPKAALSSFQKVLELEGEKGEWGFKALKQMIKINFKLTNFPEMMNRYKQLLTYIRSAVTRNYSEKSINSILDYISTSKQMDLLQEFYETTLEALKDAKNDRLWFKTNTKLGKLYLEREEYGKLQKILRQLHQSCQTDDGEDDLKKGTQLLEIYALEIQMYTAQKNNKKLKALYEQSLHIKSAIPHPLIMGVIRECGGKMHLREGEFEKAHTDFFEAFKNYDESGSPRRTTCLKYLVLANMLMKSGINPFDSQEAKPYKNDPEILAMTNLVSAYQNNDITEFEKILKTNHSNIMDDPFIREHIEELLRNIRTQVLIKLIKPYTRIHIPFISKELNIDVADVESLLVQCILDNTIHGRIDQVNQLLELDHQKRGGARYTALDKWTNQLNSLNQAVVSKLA
UniProt O09106: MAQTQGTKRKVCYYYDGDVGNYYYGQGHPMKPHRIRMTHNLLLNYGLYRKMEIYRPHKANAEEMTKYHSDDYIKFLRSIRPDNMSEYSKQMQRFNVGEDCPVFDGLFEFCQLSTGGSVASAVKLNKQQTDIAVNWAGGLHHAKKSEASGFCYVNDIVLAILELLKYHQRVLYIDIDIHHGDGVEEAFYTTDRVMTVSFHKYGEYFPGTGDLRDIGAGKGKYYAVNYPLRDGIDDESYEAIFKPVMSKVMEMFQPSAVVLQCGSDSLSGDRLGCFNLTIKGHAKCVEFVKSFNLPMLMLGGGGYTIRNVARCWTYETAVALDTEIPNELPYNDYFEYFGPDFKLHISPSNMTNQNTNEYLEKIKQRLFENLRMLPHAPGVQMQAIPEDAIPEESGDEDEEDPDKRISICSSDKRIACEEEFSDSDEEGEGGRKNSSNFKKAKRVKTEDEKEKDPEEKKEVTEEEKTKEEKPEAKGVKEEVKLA
UniProt P70288: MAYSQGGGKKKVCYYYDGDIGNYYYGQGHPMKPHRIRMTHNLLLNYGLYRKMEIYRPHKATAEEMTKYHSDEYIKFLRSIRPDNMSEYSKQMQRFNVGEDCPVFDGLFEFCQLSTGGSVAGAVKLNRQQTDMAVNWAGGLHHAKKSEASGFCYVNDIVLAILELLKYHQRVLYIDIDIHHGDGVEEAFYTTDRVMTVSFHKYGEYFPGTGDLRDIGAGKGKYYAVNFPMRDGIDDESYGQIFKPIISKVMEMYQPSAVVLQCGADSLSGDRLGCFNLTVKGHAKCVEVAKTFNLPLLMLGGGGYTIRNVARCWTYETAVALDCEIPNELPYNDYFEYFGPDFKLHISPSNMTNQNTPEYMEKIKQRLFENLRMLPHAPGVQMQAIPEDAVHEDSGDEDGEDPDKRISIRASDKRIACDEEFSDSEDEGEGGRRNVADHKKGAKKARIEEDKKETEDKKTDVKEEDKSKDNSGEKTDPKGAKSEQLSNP
UniProt P17918: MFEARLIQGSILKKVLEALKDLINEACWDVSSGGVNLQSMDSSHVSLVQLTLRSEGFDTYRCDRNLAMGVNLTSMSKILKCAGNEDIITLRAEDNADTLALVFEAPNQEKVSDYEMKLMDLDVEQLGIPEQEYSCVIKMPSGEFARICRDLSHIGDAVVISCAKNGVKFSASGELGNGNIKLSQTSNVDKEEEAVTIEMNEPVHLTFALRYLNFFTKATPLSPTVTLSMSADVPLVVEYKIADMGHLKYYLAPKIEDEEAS
UniProt Q6PR54: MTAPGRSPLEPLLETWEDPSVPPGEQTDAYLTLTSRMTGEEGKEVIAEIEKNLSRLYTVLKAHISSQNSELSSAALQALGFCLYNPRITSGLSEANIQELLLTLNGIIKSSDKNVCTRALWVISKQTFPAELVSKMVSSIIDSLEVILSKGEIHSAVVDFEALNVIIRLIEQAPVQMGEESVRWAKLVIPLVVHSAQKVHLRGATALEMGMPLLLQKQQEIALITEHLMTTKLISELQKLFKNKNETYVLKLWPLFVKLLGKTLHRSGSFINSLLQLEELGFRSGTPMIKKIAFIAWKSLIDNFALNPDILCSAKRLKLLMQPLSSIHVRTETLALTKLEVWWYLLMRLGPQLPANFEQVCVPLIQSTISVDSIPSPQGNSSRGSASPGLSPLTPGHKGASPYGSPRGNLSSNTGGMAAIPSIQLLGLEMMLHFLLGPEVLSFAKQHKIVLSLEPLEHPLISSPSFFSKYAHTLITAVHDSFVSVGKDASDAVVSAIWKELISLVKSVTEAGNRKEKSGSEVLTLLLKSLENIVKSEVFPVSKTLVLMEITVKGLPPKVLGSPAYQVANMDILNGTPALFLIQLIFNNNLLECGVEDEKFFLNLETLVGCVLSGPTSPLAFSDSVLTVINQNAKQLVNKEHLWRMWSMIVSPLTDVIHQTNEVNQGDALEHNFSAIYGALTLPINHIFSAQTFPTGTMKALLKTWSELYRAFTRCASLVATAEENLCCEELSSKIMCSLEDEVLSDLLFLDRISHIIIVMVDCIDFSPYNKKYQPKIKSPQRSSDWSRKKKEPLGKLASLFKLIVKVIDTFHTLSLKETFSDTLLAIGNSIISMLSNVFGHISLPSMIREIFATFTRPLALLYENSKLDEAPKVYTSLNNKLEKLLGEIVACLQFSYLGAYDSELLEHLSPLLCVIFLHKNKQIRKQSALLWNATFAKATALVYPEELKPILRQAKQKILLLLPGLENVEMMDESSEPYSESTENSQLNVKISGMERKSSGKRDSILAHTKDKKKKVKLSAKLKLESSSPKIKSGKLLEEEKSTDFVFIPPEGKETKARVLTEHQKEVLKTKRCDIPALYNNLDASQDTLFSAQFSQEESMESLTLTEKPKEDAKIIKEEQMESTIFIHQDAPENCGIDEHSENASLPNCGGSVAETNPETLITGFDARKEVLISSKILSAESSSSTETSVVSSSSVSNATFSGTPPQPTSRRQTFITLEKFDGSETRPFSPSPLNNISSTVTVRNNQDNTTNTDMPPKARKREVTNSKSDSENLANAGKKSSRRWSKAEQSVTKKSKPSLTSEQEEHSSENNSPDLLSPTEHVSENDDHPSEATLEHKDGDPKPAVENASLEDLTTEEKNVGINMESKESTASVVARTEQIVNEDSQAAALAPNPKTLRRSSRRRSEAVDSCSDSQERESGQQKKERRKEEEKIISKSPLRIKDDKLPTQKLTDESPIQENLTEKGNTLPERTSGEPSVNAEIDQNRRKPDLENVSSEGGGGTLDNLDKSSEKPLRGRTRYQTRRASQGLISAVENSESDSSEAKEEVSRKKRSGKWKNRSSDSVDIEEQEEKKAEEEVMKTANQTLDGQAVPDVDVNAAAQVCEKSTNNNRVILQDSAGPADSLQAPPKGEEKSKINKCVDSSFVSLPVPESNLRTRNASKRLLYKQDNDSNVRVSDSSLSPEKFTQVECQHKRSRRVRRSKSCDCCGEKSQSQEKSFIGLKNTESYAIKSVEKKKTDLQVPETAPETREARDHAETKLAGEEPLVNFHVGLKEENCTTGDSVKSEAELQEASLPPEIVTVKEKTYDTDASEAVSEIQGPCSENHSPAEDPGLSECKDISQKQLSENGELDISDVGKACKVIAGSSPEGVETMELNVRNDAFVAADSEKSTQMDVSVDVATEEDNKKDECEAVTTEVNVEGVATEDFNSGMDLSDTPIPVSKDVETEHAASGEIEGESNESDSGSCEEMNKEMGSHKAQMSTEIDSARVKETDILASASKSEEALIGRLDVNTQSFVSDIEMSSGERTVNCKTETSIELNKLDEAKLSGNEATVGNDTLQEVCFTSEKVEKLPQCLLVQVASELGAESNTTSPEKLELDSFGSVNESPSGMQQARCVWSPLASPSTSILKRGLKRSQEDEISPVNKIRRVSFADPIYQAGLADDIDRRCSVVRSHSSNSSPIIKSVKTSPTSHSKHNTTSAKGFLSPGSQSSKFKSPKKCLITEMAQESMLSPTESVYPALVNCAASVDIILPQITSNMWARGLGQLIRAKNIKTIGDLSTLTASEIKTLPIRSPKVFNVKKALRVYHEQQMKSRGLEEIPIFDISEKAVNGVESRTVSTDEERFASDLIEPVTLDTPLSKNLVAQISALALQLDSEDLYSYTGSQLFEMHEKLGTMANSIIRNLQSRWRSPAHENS

T2: Flag-tagged WT Nanog (mouse) (UniProt Q80Z64)
T2 sequence: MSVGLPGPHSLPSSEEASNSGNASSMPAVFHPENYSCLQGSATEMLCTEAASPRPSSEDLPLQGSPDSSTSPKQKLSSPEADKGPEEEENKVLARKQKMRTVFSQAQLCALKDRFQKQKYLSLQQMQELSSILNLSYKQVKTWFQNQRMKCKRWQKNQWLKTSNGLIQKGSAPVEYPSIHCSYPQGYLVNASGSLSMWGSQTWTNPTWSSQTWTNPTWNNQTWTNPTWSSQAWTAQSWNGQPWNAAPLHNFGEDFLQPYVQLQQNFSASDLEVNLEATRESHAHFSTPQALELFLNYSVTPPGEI


Tests used:
Nanog (mouse) [1] = molecular target: T1, Nanog (mouse); experiment: co-IP; Supplementary Fig. S2c: association of Cops2 and of Cops5 with Nanog; cells, tags and antibody not shown
[2] = molecular target: T2, Flag-tagged WT Nanog (mouse); experiment: co-IP; Fig. 3g: Cops2 with Flag-tagged WT, Δα1, Δα2 and Δα3 Nanog; cells not told; Western blot
Nanog (mouse) [3] = molecular target: T1, Nanog (mouse); experiment: co-IP; Fig. 3f: HEK293T cells transfected with plasmids expressing Cops2 or Nanog, two days after transfection; lysis buffer 20 mM Tris-HCl pH 8.0, 137 mM NaCl, 10% glycerol, 1% NP-40, 2 mM EDTA; beads at 4 °C overnight; Western blot
Cops2 (mouse) = Cops2 (mouse) (UniProt P61202); experiment: co-IP; Supplementary Fig. S3: Cops2 with other repressive factors; cells, tags and antibodies not shown; the method is taken from the sentence before and from the methods section

binding (Cops2 (mouse)) | Molecule | other results
 | Cops2 (from UniProt P61202 1-443) | binding (Nanog (mouse) [1]): binds; binding [2]: binds; binding (Nanog (mouse) [3]): binds
binds | Hdac1 (from UniProt O09106 1-482) | 
binds | Hdac2 (from UniProt P70288 1-488) | 
binds | PCNA (from UniProt P17918 1-261) | 
binds | Rif1 (from UniProt Q6PR54 1-2419) | 
binds | Sin3a (protein, UniProt Q60520 1-1274) MKRRLDDQESPVYAAQQRRIPGSTEAFSHQHRVLAPAPPVYEAVSETMQSATGIQYSVAPNYQVSAVPQSSGSHGPAIAAVHSSHHHPTAVQPHGGQVVQSHAHPAPPVAPVQGQQQFQRLKVEDALSYLDQVKLQFGSQPQVYNDFLDIMKEFKSQSIDTPGVISRVSQLFKGHPDLIMGFNTFLPPGYKIEVQTNDMVNVTTPGQVHQIPTHGIQPQPQPPPQHPSQPSSQSAPTPAQPAPQPTAAKVSKPSQLQAHTPASQQTPPLPPYASPRSPPVQPHTPVTISLGTAPSLQNNQPVEFNHAINYVNKIKNRFQGQPDIYKAFLEILHTYQKEQRNAKEAGGNYTPALTEQEVYAQVARLFKNQEDLLSEFGQFLPDANSSVLLSKTTAEKVDSVRNDHGGTVKKPQLNNKPQRPSQNGCQIRRHSGTGATPPVKKKPKLMSLKESSMADASKHGVGTESLFFDKVRKALRSAEAYENFLRCLVIFNQEVISRAELVQLVSPFLGKFPELFNWFKNFLGYKESVHLESFPKERATEGIAMEIDYASCKRLGSSYRALPKSYQQPKCTGRTPLCKEVLNDTWVSFPSWSEDSTFVSSKKTQYEEHIYRCEDERFELDVVLETNLATIRVLEAIQKKLSRLSAEEQAKFRLDNTLGGTSEVIHRKALQRIYADKAADIIDGLRKNPSIAVPIVLKRLKMKEEEWREAQRGFNKVWREQNEKYYLKSLDHQGINFKQNDTKVLRSKSLLNEIESIYDERQEQATEENAGVPVGPHLSLAYEDKQILEDAAALIIHHVKRQTGIQKEDKYKIKQIMHHFIPDLLFAQRGDLSDVEEEEEEEMDVDEATGAPKKHNGVGGSPPKSKLLFSNTAAQKLRGMDEVYNLFYVNNNWYIFMRLHQILCLRLLRICSQAERQIEEENREREWEREVLGIKRDKSDSPAIQLRLKEPMDVDVEDYYPAFLDMVRSLLDGNIDSSQYEDSLREMFTIHAYIAFTMDKLIQSIVRQLQHIVSDEVCVQVTDLYLAENNNGATGGQLNSQTSRSLLESAYQRKAEQLMSDENCFKLMFIQSQGQVQLTVELLDTEEENSDDPVEAERWSDYVERYMSSDTTSPELREHLAQKPVFLPRNLRRIRKCQRGREQQEKEGKEGNSKKTMENVESLDKLECRFKLNSYKMVYVIKSEDYMYRRTALLRAHQSHERVSKRLHQRFQAWVDKWTKEHVPREMAAETSKWLMGEGLEGLVPCTTTCDTETLHFVSINKYRVKYGTVFKAP | 
